In patent US5863899A (priority 1994, dated 1999):
HELM strings list residues between dots; [ac] is acetyl, [am] amide, other brackets name non-standard units.

Assay: peptide synthesis
Conditions: conjugation step

## PEPTIDE1{[dR].R.P.[Hyp].G.F.C.[dF].L.R}|CHEM1{[SuccHexCE1218]}$PEPTIDE1,CHEM1,7:R3-1:R1$$$V2.0
  conjugation yield: 35%

## PEPTIDE1{[dR].R.P.[Hyp].G.F.C.[dF].L.R}|CHEM1{[SucHexIndo]}$PEPTIDE1,CHEM1,7:R3-1:R1$$$V2.0
  conjugation yield: 45%
